Data taken from the supplement of paper PMC10849652.
The other results are listed elsewhere or left out.

By UniProt entry, the sequences of proteins in these tests, tags left out. Where a name states a change or a piece, a line headed by the entry shows the natural chain unless it says otherwise.
UniProt Q9H479: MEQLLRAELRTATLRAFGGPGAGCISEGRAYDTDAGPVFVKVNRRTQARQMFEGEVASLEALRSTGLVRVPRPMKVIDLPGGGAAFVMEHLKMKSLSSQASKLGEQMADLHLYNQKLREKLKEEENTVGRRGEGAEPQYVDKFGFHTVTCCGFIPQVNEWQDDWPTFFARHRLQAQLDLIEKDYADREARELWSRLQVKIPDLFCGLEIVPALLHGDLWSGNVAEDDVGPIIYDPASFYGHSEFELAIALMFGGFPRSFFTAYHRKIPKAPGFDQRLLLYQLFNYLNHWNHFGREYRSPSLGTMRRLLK
UniProt Q9Y285: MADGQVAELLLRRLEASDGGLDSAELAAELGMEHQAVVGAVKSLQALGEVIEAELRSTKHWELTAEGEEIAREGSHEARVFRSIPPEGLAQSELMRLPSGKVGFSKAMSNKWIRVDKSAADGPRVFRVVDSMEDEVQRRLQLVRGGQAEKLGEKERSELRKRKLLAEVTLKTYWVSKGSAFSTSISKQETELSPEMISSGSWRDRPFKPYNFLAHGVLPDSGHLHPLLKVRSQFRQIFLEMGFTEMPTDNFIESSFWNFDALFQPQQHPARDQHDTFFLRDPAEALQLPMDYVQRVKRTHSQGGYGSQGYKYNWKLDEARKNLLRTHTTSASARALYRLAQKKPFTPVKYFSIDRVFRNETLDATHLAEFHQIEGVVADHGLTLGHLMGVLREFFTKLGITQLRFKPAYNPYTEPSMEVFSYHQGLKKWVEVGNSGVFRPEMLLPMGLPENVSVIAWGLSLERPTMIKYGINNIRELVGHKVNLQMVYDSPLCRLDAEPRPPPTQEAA
UniProt P26885: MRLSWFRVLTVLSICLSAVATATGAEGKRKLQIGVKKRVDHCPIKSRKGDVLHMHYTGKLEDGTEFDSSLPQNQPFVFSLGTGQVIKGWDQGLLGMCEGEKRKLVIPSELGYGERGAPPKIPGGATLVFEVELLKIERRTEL
UniProt P10109: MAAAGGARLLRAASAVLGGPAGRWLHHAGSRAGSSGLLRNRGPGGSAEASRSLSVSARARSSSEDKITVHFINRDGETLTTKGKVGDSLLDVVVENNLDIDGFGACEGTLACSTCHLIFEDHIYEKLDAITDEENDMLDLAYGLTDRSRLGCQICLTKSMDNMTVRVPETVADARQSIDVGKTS
UniProt Q9NVK5: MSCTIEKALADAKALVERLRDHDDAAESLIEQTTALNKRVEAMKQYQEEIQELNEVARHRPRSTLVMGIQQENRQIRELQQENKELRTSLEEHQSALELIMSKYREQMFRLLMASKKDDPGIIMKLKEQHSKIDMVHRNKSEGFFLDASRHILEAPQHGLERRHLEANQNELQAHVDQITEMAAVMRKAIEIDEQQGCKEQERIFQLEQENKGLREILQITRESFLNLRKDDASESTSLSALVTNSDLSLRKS
UniProt Q9Y680: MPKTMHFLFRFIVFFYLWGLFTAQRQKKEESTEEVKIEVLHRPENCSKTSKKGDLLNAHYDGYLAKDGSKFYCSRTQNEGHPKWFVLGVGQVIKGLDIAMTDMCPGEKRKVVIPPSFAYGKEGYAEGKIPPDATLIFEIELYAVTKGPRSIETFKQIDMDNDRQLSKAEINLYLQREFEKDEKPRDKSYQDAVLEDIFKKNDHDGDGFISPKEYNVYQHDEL
UniProt Q6ZV73: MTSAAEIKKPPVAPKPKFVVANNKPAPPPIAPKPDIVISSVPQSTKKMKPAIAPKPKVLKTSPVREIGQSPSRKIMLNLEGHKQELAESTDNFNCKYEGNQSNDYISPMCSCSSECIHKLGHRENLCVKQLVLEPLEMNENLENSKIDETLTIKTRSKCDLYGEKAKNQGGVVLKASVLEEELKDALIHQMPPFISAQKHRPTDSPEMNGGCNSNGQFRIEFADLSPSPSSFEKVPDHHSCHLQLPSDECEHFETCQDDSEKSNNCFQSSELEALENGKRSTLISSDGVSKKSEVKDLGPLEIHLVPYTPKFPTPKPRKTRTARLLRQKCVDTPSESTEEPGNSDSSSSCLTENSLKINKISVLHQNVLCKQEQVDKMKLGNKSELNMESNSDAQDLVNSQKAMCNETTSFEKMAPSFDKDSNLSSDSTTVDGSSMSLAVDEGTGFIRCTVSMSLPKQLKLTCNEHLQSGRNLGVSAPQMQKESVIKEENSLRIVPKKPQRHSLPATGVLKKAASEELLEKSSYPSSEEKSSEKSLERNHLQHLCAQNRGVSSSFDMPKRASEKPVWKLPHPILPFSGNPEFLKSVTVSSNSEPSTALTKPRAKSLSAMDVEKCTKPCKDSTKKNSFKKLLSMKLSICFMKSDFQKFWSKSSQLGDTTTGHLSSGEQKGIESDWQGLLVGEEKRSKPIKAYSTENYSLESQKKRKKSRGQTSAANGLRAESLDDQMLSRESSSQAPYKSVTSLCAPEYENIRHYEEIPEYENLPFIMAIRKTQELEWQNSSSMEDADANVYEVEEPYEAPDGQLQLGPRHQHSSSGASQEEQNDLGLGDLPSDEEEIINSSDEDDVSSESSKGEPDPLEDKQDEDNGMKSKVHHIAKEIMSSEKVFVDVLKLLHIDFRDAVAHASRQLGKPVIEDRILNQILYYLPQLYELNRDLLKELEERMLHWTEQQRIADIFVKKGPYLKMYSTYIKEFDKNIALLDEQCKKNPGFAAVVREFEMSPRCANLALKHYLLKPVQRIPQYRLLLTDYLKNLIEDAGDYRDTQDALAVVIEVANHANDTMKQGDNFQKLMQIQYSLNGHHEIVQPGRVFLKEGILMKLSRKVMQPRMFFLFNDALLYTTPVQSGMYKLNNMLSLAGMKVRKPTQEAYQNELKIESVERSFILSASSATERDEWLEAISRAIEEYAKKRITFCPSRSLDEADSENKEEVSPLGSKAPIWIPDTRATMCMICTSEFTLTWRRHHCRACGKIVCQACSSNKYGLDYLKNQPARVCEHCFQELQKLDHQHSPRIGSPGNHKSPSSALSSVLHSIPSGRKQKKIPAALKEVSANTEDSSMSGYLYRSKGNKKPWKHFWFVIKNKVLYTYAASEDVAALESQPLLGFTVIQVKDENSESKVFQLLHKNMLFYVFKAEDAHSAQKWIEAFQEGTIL
UniProt P22830: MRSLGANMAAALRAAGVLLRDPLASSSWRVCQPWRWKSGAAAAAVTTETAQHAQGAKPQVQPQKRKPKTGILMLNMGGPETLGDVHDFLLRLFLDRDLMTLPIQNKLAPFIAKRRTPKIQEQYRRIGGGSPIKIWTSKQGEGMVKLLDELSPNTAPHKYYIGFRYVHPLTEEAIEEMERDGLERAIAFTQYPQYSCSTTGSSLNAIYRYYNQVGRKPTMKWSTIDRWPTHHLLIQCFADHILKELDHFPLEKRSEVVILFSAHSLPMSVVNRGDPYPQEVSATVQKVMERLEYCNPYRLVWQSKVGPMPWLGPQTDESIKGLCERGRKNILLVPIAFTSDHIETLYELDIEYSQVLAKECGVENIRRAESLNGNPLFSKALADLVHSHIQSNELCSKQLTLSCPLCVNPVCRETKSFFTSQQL
UniProt Q9UKB1: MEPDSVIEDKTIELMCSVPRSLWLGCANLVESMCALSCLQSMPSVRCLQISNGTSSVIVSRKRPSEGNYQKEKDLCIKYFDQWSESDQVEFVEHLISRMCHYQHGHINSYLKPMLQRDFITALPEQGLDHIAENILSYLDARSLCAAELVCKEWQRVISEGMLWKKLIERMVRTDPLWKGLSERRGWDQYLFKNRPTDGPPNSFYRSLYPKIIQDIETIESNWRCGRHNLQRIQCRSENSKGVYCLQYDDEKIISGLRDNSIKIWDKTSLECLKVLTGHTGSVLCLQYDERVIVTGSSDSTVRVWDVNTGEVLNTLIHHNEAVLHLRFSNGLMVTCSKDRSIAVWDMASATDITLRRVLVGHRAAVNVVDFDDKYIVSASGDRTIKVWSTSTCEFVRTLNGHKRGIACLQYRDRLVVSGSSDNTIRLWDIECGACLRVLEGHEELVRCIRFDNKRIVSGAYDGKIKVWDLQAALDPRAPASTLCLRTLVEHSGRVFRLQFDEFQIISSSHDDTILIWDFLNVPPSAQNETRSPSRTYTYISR
UniProt Q9Y3I1: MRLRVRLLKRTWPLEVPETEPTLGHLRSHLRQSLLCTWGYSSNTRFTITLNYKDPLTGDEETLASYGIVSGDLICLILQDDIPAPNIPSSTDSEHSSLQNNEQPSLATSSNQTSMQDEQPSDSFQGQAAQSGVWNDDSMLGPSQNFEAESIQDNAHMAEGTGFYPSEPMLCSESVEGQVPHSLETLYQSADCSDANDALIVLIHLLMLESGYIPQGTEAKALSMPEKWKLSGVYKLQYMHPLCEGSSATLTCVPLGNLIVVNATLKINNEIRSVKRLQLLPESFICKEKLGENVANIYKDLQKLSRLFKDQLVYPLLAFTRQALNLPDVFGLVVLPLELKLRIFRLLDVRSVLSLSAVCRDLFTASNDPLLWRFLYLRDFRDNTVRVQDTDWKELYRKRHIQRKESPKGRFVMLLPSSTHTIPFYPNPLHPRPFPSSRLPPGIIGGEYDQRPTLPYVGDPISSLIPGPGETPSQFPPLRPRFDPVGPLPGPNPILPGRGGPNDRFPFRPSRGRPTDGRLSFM
UniProt Q13643: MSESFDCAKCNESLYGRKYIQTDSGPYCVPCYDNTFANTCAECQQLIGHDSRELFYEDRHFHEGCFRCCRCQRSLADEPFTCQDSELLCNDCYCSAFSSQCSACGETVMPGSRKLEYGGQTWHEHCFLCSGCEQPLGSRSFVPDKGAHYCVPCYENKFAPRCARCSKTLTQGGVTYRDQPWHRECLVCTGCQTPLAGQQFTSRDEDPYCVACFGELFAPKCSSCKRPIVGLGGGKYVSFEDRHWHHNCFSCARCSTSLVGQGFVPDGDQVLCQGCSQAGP
UniProt Q6P4F2: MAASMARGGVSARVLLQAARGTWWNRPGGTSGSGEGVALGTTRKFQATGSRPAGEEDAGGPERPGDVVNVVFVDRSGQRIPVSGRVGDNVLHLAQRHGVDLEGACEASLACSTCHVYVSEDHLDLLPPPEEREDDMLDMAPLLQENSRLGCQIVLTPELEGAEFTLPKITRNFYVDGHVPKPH
UniProt Q9UKT4: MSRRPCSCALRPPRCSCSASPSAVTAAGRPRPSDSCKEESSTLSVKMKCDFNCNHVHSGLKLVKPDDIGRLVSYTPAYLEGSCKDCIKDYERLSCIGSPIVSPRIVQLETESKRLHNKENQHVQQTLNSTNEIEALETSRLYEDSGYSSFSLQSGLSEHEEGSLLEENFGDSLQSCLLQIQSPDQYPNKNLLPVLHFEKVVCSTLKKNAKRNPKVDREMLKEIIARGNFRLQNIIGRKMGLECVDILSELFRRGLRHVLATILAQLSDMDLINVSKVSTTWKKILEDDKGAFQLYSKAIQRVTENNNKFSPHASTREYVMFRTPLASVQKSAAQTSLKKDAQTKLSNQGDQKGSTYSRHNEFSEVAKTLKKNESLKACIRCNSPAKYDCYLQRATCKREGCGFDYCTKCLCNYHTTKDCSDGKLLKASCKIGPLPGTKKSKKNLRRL
UniProt Q9UK73, whole entry, looked up: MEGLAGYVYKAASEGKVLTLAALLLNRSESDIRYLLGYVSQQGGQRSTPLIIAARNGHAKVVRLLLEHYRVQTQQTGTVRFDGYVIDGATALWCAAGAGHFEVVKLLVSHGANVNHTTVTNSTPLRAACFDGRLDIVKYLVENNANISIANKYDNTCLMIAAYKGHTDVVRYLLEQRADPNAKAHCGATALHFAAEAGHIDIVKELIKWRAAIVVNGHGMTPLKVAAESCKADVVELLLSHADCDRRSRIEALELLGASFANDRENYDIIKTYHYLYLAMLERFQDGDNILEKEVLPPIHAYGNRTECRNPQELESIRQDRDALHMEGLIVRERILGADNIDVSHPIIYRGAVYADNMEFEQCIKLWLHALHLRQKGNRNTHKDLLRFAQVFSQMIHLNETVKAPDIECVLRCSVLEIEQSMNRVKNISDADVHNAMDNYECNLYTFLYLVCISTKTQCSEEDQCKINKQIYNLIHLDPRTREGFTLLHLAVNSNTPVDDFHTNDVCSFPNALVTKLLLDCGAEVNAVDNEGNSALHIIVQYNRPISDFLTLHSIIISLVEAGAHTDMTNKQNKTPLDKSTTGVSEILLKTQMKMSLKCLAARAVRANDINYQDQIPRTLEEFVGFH
UniProt Q9UK99: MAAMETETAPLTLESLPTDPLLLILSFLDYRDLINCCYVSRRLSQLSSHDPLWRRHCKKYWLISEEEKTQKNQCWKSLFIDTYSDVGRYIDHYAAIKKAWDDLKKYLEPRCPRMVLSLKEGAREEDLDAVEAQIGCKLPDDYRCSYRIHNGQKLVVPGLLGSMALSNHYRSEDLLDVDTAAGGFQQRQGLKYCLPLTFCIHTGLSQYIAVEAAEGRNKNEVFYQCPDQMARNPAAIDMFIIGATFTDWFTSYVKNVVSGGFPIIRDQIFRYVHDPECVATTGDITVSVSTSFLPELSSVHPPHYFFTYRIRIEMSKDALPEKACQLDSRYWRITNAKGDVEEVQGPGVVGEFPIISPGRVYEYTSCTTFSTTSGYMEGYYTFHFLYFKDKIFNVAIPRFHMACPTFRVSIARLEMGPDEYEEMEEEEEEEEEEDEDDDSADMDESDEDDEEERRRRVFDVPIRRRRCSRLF

compound: Cc1cc(Nc2cc(CN3CCOCC3)c3nc(C)c(Cc4ccc(Cl)cc4F)n3n2)n[nH]1 [gandotinib]; test: log2 fold change, soluble protein after heating vs DMSO (PISA); higher = thermal stabilisation; K562 lysate, 10 uM; active = over 0.2 and 3.5 SD of the protein, either way, in both replicates (recomputed)
How it was run: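 Log-two fold change in thermal stability relative to solvent controls is reported from duplicates. For each sample, crude K562 extract from dounce-homogenised pellets in PBS pH 7.4 with 1 mM MgCl2, at 1 mg/mL protein, was treated with 10 μM compound for 30 min. Aliquots heated for 3 min across 48°C-58°C were pooled, brought to 0.5% NP-40 at 4°C and cleared at 21,000xg for 90 min. The supernatant was quantified by TMTpro 16plex LC-MS/MS with channel sums equalised.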

log2 fold change, inactive:
FN3K (UniProt Q9H479) -0.035
FBXL8 (UniProt Q96CD0) 0.115
FARSA (UniProt Q9Y285) 0.039
FKBP2 (UniProt P26885) -0.001
FDX1 (UniProt P10109) 0.027
FGFR1OP2 (UniProt Q9NVK5) 0.021
FKBP7 (UniProt Q9Y680) 0.001
FGD6 (UniProt Q6ZV73) 0.448
FECH isoform 2 (UniProt P22830) 0.418
FBXW11 (UniProt Q9UKB1) -0.1
FANCI (UniProt Q9NVI1) -0.199
FBXO7 (UniProt Q9Y3I1) 0.03
FHL3 (UniProt Q13643) 0
FDX2 (UniProt Q6P4F2) 0.014
FNTB (UniProt P49356) 0.055
FBXO5 (UniProt Q9UKT4) -0.028
FMNL1 isoform 3 (UniProt O95466) -0.056
FLOT1 (UniProt O75955) -0.025
FGGY isoform 3 (UniProt Q96C11) -0.064
FEM1B (UniProt Q9UK73) 0.066
FNTA (UniProt P49354) -0.012
FBXO3 (UniProt Q9UK99) -0.006
FAM8A1 (UniProt Q9UBU6) -0.005

A stretch from further up, as a working copy:
log2 fold change, inactive:
FBXL8 (UniProt Q96CD0) 0.115
FARSA (UniProt Q9Y285) 0.039
